Measured values as given in doi:10.1101/2025.03.05.641767.
No constants are given. Whether binding was seen depends on the method and setting. In cells and extracts the contact can be indirect. These calls come from enrichment with a bait or labelling near it, and not all partners need be listed.

By UniProt entry, the sequences of proteins in these tests, tags left out.
UniProt P43363: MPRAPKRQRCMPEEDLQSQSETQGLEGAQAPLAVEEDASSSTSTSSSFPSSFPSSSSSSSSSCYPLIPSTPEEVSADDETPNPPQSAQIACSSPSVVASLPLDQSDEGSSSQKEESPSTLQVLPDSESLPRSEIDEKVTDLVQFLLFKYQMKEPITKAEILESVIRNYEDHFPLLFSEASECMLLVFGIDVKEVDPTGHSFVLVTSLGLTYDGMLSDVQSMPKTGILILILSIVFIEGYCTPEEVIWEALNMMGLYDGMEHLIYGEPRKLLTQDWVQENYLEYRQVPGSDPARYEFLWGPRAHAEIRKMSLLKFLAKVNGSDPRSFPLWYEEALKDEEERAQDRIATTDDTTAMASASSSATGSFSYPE
UniProt Q92830: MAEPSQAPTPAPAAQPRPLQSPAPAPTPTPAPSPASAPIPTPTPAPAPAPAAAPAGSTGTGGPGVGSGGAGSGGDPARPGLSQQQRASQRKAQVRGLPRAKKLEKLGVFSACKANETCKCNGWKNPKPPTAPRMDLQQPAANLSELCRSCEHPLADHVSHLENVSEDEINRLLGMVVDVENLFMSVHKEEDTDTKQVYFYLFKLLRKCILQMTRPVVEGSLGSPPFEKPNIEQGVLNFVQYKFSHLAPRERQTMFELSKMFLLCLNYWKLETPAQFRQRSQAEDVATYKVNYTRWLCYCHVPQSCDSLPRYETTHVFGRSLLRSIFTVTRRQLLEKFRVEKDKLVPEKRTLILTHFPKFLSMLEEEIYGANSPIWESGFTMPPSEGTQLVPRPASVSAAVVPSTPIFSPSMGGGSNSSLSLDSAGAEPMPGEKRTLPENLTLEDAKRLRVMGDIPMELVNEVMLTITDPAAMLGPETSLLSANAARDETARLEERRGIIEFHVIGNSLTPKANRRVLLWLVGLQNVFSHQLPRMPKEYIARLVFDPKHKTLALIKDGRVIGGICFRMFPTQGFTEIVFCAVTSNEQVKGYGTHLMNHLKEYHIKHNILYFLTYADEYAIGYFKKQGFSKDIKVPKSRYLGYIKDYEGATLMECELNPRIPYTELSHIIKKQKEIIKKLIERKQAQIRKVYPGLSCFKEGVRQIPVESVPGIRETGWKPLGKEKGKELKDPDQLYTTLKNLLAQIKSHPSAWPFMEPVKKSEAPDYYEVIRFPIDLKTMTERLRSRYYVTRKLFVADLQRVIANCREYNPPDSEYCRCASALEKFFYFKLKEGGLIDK
UniProt Q92831: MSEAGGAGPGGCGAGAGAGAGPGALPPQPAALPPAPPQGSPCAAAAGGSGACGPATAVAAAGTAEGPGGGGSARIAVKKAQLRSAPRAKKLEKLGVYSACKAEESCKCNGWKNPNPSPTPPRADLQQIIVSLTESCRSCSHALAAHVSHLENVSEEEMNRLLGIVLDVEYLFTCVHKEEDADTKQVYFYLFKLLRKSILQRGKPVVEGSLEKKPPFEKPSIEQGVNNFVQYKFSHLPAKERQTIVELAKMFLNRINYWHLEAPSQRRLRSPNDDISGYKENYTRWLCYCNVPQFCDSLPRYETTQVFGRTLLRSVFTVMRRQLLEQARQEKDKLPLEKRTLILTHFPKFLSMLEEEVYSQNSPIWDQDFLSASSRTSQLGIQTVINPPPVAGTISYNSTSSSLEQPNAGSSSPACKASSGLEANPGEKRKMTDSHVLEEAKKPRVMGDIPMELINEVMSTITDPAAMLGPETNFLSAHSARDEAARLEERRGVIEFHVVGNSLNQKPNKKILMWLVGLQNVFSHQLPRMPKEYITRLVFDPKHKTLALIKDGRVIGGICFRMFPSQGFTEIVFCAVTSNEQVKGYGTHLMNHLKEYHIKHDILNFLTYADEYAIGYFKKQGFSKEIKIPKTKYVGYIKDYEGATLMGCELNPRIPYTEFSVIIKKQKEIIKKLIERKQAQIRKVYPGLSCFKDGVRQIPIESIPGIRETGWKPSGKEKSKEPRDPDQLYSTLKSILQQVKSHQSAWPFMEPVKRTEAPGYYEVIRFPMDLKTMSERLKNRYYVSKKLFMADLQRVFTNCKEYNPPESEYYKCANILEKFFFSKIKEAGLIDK

Molecular target: TAP-MAGE-A10 (human) (UniProt P43363)
Assay: affinity purification with mass spectrometry

| binding | Substance |
| --- | --- |
| binds | KAT2A (endogenous) (from UniProt Q92830 1-837) (enzyme) |
| binds | KAT2B (endogenous) (from UniProt Q92831 1-832) (enzyme) |
